PubChem BioAssay AID1159578, Peter MacCallum Cancer Centre | 2015
The whole screen tested about 18,000 reagents; this is a random part of them. About 1,030 of them (5.7%) were called active. 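Inactive calls also include pools with fewer than 3300 nuclei, whose migration was not assessed.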 The raw values are shown without normalisation. A number with no mark means an inactive call. Further read-outs or replicates are left out here.

- Purpose: 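Genome-wide hunt for genes controlling movement of lymphatic endothelial cells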 (primary screen)
- System: human lymphatic endothelial cells
- Reagent: siRNA pool against human genes, 40 nM
- Duration: 48 h after transfection
- Measurement: 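High-content imaging of dye-stained cells in a scratch assay measures filled wound area and nuclei per well; duplicate means given as ratio to mock and robust z-score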
- Direction: migration robust z-score: higher = faster migration into the scratch; nuclei per well: higher = more cells in the well
- Rule for the call: 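Migration changed when robust z exceeds 2 or falls below -2 and mean nuclei number is at least 3300; otherwise not called changed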
- Calls: active = migration changed; inactive = no migration change, or too few cells

RHOB — migration robust z-score: 0.94; nuclei per well, duplicate mean: 5168
ZNF512B — migration robust z-score: -0.51; nuclei per well, duplicate mean: 6791
KRT3 — migration robust z-score: 0.1; nuclei per well, duplicate mean: 6291
ANGPT4 — migration robust z-score: -1.06; nuclei per well, duplicate mean: 4587
EMC10 — migration robust z-score: 0.06; nuclei per well, duplicate mean: 6516
SLC25A27 — migration robust z-score: 0; nuclei per well, duplicate mean: 4960
RCN1 — migration robust z-score: -0.22; nuclei per well, duplicate mean: 5389
TRIM7 — migration robust z-score: 0.02; nuclei per well, duplicate mean: 5110
PAK6-AS1 — migration robust z-score: 0.79; nuclei per well, duplicate mean: 5391
BOLA1 — migration robust z-score: -0.88; nuclei per well, duplicate mean: 4711
SMPD3 — migration robust z-score: -0.73; nuclei per well, duplicate mean: 6762
SH3D19 — migration robust z-score: -0.92; nuclei per well, duplicate mean: 5028
TEX261 — migration robust z-score: 0.92; nuclei per well, duplicate mean: 6114
KCTD18 — migration robust z-score: 0.88; nuclei per well, duplicate mean: 5442

Reformatted: results already given
| Gene | migration robust z-score | nuclei per well, duplicate mean |
| --- | --- | --- |
| KRT3 | 0.1 | 6291 |
| ANGPT4 | -1.06 | 4587 |
